No constants are given. Whether binding was seen depends on the method and setting. In cells and extracts the contact can be indirect. Here binding means that the protein was enriched with, or labelled near, the bait; the list need not be complete. Where a sequence is shown, tags or fusion partners need not be part of it.
T1: HA-Pcgf6 (polycomb group ring finger 6) (UniProt Q99NA9)
T1 sequence: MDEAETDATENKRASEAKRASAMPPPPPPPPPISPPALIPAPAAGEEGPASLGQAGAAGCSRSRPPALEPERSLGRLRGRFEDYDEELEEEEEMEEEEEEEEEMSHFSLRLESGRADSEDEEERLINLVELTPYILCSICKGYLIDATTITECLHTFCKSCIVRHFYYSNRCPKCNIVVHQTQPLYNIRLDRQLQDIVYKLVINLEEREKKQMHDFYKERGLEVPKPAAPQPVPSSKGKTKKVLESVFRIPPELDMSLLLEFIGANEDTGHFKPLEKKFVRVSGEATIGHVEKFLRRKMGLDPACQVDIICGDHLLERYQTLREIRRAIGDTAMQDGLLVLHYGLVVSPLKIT

Protein sequences, listed by entry. Tags and fused reporters are not part of them.
UniProt P55200: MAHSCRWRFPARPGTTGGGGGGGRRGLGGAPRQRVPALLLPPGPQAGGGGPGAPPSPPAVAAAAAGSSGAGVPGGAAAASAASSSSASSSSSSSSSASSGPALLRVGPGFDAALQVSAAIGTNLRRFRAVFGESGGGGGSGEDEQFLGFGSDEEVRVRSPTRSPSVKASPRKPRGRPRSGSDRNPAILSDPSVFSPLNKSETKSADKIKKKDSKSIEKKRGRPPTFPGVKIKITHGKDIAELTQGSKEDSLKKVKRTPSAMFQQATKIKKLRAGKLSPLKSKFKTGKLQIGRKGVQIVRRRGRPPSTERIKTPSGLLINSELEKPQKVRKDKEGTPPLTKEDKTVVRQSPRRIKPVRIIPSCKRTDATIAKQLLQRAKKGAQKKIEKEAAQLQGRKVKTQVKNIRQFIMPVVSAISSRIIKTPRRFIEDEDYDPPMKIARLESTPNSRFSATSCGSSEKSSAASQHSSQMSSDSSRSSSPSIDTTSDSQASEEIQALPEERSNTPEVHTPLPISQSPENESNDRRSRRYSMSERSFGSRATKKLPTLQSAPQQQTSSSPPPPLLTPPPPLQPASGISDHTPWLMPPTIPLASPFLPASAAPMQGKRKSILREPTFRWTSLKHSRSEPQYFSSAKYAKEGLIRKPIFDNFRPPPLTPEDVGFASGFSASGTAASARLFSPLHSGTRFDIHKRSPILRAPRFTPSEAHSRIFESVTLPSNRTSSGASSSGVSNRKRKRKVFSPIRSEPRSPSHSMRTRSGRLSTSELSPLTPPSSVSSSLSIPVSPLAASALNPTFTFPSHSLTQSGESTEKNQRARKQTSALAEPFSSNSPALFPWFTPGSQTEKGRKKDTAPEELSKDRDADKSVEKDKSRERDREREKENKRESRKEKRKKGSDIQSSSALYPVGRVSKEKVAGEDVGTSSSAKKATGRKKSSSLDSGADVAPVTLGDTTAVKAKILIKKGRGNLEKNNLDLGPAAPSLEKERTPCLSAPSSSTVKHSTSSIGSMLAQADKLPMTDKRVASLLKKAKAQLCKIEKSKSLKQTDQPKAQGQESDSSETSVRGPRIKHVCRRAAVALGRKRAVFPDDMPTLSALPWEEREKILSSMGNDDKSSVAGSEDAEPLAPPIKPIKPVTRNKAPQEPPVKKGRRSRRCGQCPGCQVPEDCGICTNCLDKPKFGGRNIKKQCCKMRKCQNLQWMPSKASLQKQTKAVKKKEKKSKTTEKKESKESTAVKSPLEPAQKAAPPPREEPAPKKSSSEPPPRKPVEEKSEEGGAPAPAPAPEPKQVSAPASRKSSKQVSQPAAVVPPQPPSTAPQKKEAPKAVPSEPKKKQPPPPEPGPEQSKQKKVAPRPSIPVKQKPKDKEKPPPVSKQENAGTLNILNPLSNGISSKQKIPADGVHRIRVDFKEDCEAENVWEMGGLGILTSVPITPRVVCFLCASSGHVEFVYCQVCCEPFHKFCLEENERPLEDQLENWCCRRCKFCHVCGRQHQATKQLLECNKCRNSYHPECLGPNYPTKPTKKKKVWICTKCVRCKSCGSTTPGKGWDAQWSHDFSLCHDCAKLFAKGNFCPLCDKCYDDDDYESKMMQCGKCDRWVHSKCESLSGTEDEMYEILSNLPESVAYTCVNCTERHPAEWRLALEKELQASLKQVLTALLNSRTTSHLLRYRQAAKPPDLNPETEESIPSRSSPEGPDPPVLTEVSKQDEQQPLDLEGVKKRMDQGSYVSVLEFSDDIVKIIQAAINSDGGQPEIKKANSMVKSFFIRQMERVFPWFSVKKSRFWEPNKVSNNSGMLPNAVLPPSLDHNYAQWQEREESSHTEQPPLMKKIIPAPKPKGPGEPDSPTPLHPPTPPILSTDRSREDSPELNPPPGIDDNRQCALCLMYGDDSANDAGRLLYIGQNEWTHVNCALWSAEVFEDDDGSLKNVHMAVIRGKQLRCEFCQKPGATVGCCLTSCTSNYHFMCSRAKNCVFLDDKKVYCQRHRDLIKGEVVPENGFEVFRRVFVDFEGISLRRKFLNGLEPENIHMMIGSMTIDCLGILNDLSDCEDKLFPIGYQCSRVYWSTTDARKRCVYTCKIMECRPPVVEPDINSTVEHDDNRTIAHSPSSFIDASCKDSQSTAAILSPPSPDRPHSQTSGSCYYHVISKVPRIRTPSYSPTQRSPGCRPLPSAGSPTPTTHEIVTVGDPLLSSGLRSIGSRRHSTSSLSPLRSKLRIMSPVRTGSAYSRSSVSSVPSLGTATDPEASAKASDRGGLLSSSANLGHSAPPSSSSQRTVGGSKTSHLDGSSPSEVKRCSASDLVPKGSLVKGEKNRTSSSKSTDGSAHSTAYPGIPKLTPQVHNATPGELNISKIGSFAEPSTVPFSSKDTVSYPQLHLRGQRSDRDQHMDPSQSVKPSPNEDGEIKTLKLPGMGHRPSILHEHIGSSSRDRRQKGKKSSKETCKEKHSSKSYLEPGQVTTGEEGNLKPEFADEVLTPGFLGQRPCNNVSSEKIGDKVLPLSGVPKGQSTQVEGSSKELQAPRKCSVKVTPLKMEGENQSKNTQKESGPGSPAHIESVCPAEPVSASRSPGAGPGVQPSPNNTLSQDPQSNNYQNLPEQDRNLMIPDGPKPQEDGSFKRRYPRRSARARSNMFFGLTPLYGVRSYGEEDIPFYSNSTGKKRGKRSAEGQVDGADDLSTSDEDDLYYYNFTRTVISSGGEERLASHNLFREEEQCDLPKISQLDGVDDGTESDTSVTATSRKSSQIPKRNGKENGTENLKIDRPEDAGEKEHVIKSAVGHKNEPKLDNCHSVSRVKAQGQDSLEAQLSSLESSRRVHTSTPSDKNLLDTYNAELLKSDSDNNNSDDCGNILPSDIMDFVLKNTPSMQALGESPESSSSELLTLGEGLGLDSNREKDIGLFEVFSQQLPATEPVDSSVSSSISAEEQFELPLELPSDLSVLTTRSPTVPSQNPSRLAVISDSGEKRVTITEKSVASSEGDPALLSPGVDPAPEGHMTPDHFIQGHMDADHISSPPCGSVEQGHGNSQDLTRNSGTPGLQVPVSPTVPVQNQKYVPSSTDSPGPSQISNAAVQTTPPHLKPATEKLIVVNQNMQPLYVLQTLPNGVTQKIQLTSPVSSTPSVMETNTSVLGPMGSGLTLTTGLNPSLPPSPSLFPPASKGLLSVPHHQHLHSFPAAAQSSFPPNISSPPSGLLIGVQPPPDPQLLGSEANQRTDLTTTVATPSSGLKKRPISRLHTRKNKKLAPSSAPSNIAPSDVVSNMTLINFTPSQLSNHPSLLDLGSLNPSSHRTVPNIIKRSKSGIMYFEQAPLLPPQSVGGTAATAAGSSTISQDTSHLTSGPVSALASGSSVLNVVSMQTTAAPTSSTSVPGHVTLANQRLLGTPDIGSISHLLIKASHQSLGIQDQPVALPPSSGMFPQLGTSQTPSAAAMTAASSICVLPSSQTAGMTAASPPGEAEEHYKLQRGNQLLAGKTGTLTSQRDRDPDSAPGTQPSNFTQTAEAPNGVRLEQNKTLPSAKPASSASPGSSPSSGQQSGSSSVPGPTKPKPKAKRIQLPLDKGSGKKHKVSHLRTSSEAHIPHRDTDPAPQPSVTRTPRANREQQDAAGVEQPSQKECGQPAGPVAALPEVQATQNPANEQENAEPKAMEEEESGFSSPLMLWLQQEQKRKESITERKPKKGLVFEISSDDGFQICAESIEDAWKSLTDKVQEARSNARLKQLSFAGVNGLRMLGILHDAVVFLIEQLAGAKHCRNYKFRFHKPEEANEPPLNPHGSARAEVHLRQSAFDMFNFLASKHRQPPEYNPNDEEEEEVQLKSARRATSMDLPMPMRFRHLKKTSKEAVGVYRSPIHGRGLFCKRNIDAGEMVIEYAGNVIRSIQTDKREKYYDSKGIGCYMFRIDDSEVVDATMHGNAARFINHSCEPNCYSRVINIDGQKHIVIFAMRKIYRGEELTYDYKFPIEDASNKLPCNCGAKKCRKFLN
UniProt Q8BX09: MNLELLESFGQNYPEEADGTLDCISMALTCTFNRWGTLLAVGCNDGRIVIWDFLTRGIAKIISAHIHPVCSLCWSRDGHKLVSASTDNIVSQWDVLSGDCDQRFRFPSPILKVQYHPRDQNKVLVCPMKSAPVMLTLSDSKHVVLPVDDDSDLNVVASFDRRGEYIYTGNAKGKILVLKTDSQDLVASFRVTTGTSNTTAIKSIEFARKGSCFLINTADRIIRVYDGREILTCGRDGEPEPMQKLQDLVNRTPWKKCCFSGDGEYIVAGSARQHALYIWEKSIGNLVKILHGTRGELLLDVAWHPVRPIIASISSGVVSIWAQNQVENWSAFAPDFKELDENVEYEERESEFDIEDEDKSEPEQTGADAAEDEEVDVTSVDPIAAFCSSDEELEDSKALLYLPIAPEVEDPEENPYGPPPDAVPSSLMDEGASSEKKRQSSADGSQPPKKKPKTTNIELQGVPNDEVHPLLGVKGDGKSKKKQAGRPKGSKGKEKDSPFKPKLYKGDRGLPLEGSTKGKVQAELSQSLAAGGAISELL


Molecular target: T1, HA-Pcgf6 (polycomb group ring finger 6)
Test: affinity purification with mass spectrometry; HA-Pcgf6 immunoprecipitated from ESCs; co-immunoprecipitated proteins detected by mass spectrometry

Molecule	binding
Mll1 (from UniProt P55200 1-3966)	binds
Rbbp5 (from UniProt Q8BX09 1-538)	binds
Zfp219 (protein, UniProt Q6IQX8 1-726) MEGSRPRILVGHLEPSPPAFDGELDLQRYSNGPGVSGTPGPGSPGMGAVGWSETRAGERRFPCPVCGKRFRFNSILALHLRAHPGAQAFQCPHCGHRAAQRALLRSHLRTHQPERPRSPAARLLLELEERALLREARLGRARSSGGMQSSPAAEGLARPQVPSSSAFRCPFCKGKFRTSAERERHLHILHRPWKCSLCSFGSSQEEELLHHSLTAHGASERPLAATSTPEPPPPPQQEPRSALEPEPEPEPRPEPDREANPAPTPAPPEEPPAPPEFRCQVCGQSFTQSWFLKGHMRKHKASFDHACPVCGRCFKEPWFLKNHMKVHTSKLGPLRAPGPGSAPARAPQPPDLSLLAYEPLGPALLLAPAPAPAERREPPSLLGYLSVRAGEVRPNGEGADPGGGRSYGGFRPLPSALPNRARRHRTEEPEEEEEVVEAEEESWARGRSLGSLTSLHPNPGEGSGQPAPAAGTQARSTATQEENGLLVGGTRSEAGRGATGKDCPFCGKSFRSAHHLKVHLRVHTGERPYKCPHCDYAGTQSGSLKYHLQRHHREQRSSAGPGPPPEPPPPSQRGSLQPQSGAKPTQASATWVEGTASTRPPSSSTGPGSRRKPASPGRTLRNGRGGEAEPLDLSLRAGPGGEAGAGGALHRCLFCPFATGAPELMALHLQVHHSRRARGRRQPRADTSPTYVRAPSGETPPSPPLEEEGSPGLSRSGEAGLGGQER	binds
